Assay results taken from patent US8445503B2, “Inhibitors of polo-like kinase” (Elan Pharmaceuticals, Inc., priority 2009, dated 2013).
At least one compound was matched to its structure with a doubt left. Some compounds share one wording; it may come from a single statement. Some entries share one result that the patent states for a list of compounds.

Sequences of proteins named here, by UniProt entry; tags and fusion partners are left off. A change or cut given only in a name is not applied to a line headed by its entry.
UniProt Q9NYY3: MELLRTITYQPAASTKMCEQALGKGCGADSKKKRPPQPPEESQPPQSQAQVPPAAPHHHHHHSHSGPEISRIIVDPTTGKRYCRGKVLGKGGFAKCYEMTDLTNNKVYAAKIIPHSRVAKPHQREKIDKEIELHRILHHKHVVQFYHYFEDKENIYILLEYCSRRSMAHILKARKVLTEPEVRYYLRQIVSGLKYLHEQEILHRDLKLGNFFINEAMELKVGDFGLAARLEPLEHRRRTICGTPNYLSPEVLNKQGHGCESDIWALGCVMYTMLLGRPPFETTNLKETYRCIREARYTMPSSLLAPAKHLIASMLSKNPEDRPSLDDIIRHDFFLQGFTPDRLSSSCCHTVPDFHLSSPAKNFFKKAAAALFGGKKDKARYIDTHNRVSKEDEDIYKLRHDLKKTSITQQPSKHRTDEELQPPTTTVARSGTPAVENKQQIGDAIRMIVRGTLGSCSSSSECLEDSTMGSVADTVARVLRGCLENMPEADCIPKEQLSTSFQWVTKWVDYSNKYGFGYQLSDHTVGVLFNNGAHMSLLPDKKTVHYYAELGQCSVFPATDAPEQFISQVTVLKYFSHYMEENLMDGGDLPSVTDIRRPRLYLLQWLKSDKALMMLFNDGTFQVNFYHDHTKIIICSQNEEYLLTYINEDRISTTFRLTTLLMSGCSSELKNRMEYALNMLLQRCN

tested on: ABL1, AKT1, AURKA, CAMK2A, CDK1, CDK2, CDK5, CHEK1, CLK1, CSF1R, DYRK1B, ERBB4, FLT3, GSK3B, INSR, JAK1, LCK, MAPK1, MAPK10, MARK2, PAK4, PDGFRA, PRKACA …; assay: Kinase panel screening at InVitrogen Corporation, 35 other kinases; conditions: 10 μM compound; any of the 35 listed kinases

Row | SMILES | percent inhibition of kinase [%]
1 | CC[C@@H]1C(=O)N(C)c2cnc(-n3ccnc3-c3cscn3)nc2N1C1CCCC1 [Example 68] | ≤ 30
2 | CC[C@@]12CCCN1c1nc(-n3ccnc3-c3ccccc3)ncc1N(C)C2=O [Example 76, (S)-6a-ethyl-5-methyl-2-(2-phenyl-1H-imidazol-1-yl)-6a,7,8,9-tetrahydropyrrolo[2,1-h]pteridin-6(5H)-one] | ≤ 30

target: T1, GST-PLK2 (Homo sapiens, UniProt Q9NYY3); assay: PLK TR-FRET peptide assay, PLK2; type: biochemical; conditions: comparison of resolved enantiomers; used to assign absolute configuration
T1 construct: purchased CarnaBio

Row | SMILES | PLK2 activity relative to the opposite enantiomer / other isomer
3 | CC[C@@]12COCCN1c1nc(-c3snnc3-c3ccc(F)cn3)ncc1N(C)C2=O [Example 415, (S)-6a-ethyl-2-(4-(5-fluoropyridin-2-yl)-1,2,3-thiadiazol-5-yl)-5-methyl-6a,7,9,10-tetrahydro-[1,4]oxazino[3,4-h]pteridin-6(5H)-one] | more active compound
4 | CC[C@@]12COCCN1c1nc(-c3cccnc3-c3ccccc3)ncc1N(C)C2=O [Example 403, (S)-6a-ethyl-5-methyl-2-(2-phenylpyridin-3-yl)-6a,7,9,10-tetrahydro-[1,4]oxazino[3,4-h]pteridin-6(5H)-one] | more active compound
5 | CC[C@@]12COCCN1c1nc(-n3ccnc3-c3ccccc3)ncc1N(C)C2=O (single isomer, unassigned) [Example 314] | more active compound
6 | CC[C@@]12COCCN1c1nc(-c3cnoc3-c3ccccc3)ncc1N(C)C2=O [Example 413, (S)-6a-ethyl-5-methyl-2-(5-phenylisoxazol-4-yl)-6a,7,9,10-tetrahydro-[1,4]oxazino[3,4-h]pteridin-6(5H)-one] | more active compound
